Assay results: PMC10177047
These are yes or no findings as the source states them, for the method shown. In cells and extracts the contact can be indirect. Some entries that bind do so weakly or less than the wild type.

By UniProt entry, the sequences of proteins in these tests, tags left out.
UniProt O14497: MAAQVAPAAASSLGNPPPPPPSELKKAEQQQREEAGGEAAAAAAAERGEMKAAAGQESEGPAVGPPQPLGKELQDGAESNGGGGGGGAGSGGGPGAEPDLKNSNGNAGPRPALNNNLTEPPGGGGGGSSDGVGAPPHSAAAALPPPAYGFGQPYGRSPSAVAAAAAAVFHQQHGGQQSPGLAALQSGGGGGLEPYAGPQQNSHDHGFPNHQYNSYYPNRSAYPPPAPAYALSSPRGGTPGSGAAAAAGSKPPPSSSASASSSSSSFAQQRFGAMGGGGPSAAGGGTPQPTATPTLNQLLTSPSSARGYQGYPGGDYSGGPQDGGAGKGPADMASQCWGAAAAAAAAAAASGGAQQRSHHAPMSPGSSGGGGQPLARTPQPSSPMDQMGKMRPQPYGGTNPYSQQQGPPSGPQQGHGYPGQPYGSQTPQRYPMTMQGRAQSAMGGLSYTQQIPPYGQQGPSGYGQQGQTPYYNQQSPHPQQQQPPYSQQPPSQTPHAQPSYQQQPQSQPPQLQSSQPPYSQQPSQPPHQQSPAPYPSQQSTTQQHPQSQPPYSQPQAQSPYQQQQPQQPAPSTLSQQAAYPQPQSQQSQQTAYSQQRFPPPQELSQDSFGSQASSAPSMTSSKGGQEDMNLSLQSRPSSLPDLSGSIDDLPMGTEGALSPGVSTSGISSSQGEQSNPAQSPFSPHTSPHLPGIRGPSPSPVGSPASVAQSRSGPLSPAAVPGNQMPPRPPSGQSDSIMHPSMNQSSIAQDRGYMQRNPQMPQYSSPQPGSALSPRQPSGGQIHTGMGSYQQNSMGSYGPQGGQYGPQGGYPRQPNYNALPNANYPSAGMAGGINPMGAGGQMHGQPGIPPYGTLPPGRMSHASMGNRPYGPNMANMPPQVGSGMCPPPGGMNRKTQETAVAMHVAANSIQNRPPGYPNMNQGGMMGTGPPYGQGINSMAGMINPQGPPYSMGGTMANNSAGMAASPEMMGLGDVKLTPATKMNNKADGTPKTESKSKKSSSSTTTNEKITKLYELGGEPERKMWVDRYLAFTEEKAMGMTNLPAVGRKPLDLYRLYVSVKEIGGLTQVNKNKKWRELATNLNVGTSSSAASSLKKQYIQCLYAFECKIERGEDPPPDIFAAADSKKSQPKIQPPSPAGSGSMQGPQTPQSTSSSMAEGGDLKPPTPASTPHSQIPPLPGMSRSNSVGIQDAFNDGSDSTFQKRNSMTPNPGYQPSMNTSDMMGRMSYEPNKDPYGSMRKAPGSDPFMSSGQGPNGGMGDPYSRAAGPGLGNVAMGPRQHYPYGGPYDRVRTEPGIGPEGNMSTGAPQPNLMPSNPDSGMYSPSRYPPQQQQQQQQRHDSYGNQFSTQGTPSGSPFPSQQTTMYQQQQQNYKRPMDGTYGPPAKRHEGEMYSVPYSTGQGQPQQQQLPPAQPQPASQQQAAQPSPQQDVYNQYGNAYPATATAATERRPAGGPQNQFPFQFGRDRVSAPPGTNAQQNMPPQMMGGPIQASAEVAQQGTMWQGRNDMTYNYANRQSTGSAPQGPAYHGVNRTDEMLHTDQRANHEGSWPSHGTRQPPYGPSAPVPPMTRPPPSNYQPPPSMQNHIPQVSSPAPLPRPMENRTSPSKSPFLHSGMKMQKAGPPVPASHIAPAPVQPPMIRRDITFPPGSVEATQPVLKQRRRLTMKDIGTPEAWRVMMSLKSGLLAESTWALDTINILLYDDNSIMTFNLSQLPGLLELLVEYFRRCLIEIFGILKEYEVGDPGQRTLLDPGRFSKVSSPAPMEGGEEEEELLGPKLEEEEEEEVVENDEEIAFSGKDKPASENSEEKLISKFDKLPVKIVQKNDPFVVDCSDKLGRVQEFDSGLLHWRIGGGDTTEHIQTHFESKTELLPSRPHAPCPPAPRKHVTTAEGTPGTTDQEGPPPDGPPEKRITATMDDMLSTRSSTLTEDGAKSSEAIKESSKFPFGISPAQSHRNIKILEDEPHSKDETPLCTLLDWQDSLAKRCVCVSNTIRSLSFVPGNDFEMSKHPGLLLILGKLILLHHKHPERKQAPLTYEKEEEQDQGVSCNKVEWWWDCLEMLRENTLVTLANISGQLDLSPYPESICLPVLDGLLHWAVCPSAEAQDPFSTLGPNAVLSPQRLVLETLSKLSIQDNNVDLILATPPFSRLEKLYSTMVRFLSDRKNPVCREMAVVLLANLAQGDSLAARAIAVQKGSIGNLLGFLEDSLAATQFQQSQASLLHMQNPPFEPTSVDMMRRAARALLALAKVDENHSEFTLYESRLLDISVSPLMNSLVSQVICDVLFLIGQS
UniProt P51532: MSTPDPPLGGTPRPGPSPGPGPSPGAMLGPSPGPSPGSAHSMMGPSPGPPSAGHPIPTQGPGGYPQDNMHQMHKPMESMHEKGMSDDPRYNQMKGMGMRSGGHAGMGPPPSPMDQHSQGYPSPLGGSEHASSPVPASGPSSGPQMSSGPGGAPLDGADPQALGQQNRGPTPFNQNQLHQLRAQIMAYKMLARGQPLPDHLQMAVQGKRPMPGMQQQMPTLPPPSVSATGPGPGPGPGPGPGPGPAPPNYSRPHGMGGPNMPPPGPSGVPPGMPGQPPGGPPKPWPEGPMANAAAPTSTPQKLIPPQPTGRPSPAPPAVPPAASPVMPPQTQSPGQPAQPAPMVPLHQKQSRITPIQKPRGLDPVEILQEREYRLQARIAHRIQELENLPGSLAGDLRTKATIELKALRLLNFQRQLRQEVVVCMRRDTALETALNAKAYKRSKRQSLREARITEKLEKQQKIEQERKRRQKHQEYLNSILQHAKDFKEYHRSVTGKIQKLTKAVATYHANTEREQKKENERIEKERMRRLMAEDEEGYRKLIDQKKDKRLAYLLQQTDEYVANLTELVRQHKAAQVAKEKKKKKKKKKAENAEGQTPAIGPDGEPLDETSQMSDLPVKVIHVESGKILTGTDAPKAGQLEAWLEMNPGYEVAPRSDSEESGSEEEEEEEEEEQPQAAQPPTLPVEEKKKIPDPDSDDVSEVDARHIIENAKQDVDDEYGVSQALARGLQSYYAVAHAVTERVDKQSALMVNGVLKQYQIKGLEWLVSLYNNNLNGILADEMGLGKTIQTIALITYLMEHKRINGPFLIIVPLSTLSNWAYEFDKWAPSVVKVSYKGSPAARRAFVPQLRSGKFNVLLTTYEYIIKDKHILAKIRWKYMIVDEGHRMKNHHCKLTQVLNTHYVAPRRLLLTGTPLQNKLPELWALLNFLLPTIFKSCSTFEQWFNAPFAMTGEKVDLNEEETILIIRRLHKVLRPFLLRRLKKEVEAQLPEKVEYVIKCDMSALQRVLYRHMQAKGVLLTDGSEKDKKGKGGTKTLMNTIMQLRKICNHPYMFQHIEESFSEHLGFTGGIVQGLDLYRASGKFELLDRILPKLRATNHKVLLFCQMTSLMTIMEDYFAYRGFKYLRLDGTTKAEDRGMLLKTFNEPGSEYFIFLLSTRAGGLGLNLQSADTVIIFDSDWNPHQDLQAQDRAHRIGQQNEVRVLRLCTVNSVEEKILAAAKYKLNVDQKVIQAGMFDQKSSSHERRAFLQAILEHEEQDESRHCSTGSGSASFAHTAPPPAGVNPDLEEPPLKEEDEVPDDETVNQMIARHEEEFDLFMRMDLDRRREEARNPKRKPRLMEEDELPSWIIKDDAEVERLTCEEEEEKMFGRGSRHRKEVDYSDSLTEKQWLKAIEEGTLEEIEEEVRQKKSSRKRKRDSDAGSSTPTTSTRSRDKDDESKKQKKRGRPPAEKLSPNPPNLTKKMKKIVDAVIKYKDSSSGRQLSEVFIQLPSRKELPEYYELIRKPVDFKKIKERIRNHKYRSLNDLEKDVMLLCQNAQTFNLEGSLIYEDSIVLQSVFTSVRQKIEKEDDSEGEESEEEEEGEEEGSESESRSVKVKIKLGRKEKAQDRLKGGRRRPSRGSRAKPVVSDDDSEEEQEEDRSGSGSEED
UniProt P46937: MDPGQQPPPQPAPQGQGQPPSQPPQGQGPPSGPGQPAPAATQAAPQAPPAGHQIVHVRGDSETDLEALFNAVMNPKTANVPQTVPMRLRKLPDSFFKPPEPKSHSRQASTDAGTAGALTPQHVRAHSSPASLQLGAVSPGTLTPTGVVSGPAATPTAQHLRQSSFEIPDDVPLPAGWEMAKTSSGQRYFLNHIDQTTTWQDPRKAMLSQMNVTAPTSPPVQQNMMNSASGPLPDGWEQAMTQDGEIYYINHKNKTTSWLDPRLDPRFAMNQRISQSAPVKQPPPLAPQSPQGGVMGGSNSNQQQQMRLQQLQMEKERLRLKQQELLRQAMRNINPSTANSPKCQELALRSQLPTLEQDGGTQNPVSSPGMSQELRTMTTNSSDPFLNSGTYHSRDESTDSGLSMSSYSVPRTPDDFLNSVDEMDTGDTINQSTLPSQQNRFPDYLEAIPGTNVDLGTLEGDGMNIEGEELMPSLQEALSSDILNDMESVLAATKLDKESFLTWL

Target: ARID1A (human (endogenous in MDA-MB-231)) (UniProt O14497)
Test: co-IP; lysates (RIPA buffer) of MDA-MB-231 (and BT-549) cells; anti-ARID1A, anti-YAP, anti-BRG1 or anti-TEAD antibody at 4 °C overnight, protein A/G beads, Western blot; control, ARID1A knock-out, ARID1A-overexpressing and siBRG1 cells

Substance | binding
BRG1 (from UniProt P51532 1-1647) | binds
YAP (from UniProt P46937 1-504) | binds
